{
  "source": "patent US20020022022A1",
  "about": "“Inhibition of cell proliferation and matrix synthesis by antioxidants and NAD(P)H oxidase inhibitors” (priority 2000, published 2002)",
  "tested_on": "vascular SMC",
  "experiment": "Vascular SMC proliferation, serum-stimulated (cell counting)",
  "format": "cell-based",
  "conditions": "10% FBS, 3 days after treatment; concentration-dependent",
  "protocol": "FIG. 7B. ROS and vascular SMC proliferation. SMC (10,000 cells/well) are arrested with 0.5% FBS for 48 hours and then stimulated with 10% FBS in the presence or absence of various inhibitors. Cell growth is examined at 3 days after treatment by cell counting. […] The experiments are repeated 3 times yielding similar results.\nFibroblasts are isolated from the adventitia of porcine coronary arteries as described. (26) The cells (passage 2-6) are plated in triplicates at 10,000 cells/well in 24-well plates in DMEM supplemented with 10% FBS. At 24 hours later, cells are arrested in DMEM containing 0.5% FBS for 48 hours. Afterwards, they are stimulated with 10% FBS for 3 days with or without addition of indicated inhibitors. Cells are trypsinized at 72 hours after stimulation and counted in a Coulter counter. Values are derived from 3 wells/treatment and the experiments are repeated at least three times on separate occasions.",
  "note": "At least one compound was matched to its structure with a doubt left.",
  "data": [
    {"smiles": "S=C(S)N1CCCC1", "note": "[PDC, pyrrolidinedithiocarbamate]", "values": [
      {"measurement": "effect on SMC growth (cell counting)", "result": "significantly inhibits"}
    ]}
  ]
}
